Measured values: PubChem BioAssay AID504444 (National Center for Advancing Translational Sciences (NCATS), 2011)
Screen size: about 360,000 compounds; about 7,500 (2.1%) were called active. The shares of active, inactive and inconclusive entries below differ from those in the screen. The call rests on the fitted dose curve; in most records, active means well fitted inhibition curve with a large enough effect; inconclusive means small, poorly fitted or top-dose-only effect, or effect the other way; inactive means flat fitted curve, though single readings scatter. A potency beside an inconclusive call is a rough fit, not a confirmed value.
On the % scale 0 is the no-effect control and ±100 the full control effect; potency means the concentration at half of the fitted maximal effect.

Test: Nrf2 qHTS screen for inhibitors; further: nearly all actives have a fitted effect of over 60% in size
Conditions: A549 ARE-Fluc reporter, luciferase luminescence, 18-24 h; activity change, negative = inhibition: at 46 µM (top of the series)
In short: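 Cells were seeded and rested 2 h, then exposed to compounds for 18-24 h. CellTiter-Fluor was read first as a viability measure. BugLite was added 15 min before the final luminescent read of ARE-luciferase activity in A549 cells.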
For Cn1c(=N)n(CC(=O)c2ccc(Br)cc2)c2ccccc21, the Potency was inconclusive: 1.84 µM [activator, full curve].
For Cc1oc(C(=O)O)cc1COc1ccc2c(C)cc(=O)oc2c1, the “activity change, negative = inhibition” value was inactive: 8.05%.
For COc1ccc(/C=N/OCC(=O)NC(c2ccccc2)c2ccccc2)cc1OC, the Potency was active: 5.8 µM.
With COc1cc2c(cc1OC)C(c1ccc(-c3cc(Cl)ccc3Cl)o1)=NCC2 the Potency was active: 16.4 µM.
With COc1ccc(OCCCC(=O)Nc2cccc(SC)c2)cc1 the Potency was inconclusive: 16.4 µM [falling, partial curve, poor fit].
For COc1cc(CCc2ccccc2)c(C(=O)O)c(O)c1C/C=C(/C)CCC=C(C)C, the Potency was inconclusive: 20.6 µM [falling, single point].
In the case of CCNc1nc(NCC)n2c(SC(C)C(=O)c3ccc(C)cc3)nnc2n1 (configuration not stated), the Potency is reported as inconclusive: 23.1 µM [falling, partial curve, poor fit].
In the case of COc1ccc(OC)c(-c2nnc(-c3ccc(C)o3)o2)c1, the Potency is reported as inconclusive: 23.1 µM [activator, single point].
In the case of CCC1(C)Cc2c(sc3nnn(Cc4ccccc4Cl)c(=O)c23)CO1 (configuration not stated), the Potency is reported as active: 14.6 µM.
In the case of CCN(CC)Cc1cc(C(C)=O)ccc1OCC(C)C, the “activity change, negative = inhibition” value is reported as inactive: -15.5%.
For O=C(NCc1cccnc1)c1ccc(COc2cccc3ccccc23)o1, the Potency was inconclusive: 10.3 µM [falling, partial curve, poor fit].
With Cc1nc2c(c3c1[nH]c1ccccc13)C(O)CC(C)(C)C2 (configuration not stated) the Potency was inconclusive: 29.1 µM [falling, single point].
For COc1cc2c(cc1OC)C(C(=O)NC1CC1)C1c3ccccc3CCN1C2=O (configuration not stated), the “activity change, negative = inhibition” value was inactive: -9.37%.
For CCOc1cc(C2NC(=O)NC(C)=C2C(=O)OCC2CCCCC2)ccc1O (configuration not stated), the Potency was inconclusive: 16.4 µM [falling, single point].
With Cc1cc(C)cc(NC(=O)CSc2ccc(-c3ccco3)nn2)c1 the Potency was inconclusive: 32.6 µM [falling, single point].
For C/C(=N\N=C1\NC(=O)C(Cc2ccccc2)S1)c1ccccc1 (configuration not stated), the “activity change, negative = inhibition” value was inactive: -12.6%.
With COc1cc2c(cc1OC)C(c1ccccc1OC(C)C)CC(=O)N2 (configuration not stated) the Potency was inconclusive: 13 µM [falling, partial curve, poor fit].
In the case of CC(=O)c1cccc(OCc2cc(C(=O)NCc3nc(C)c(C)s3)no2)c1, the Potency is reported as inconclusive: 25.9 µM [activator, single point].
For CS(=O)(=O)c1ccc(Sc2nc3ccccc3s2)c([N+](=O)[O-])c1, the Potency was inconclusive: 4.11 µM [falling, partial curve].
With CCCn1c(=O)c(C(=O)c2ccccc2)nc2ccccc21 the Potency was inconclusive: 1.46 µM [falling, partial curve, poor fit].
In the case of COc1ccccc1-n1c(N)c(C(=O)NCC2CCCO2)c2nc3ccccc3nc21 (configuration not stated), the “activity change, negative = inhibition” value is reported as inactive: -11.7%.
With O=C(NCCCNC1CCCCC1)c1ccc(/C=N/O)nc1 the Potency was inconclusive: 18.4 µM [activator, partial curve, poor fit].
With CCC(CC)C(=O)N1N=C(c2ccc(NS(C)(=O)=O)cc2)CC1c1ccccc1 (configuration not stated) the Potency was inconclusive: 20.6 µM [falling, single point].
With CN1C(C(=O)c2ccccc2)=C(NC(=O)c2ccc(F)cc2)c2ccccc2S1(=O)=O the Potency was inconclusive: 32.6 µM [falling, single point].
For CC(=O)c1ccc(NC(=O)c2noc3c2CCC3)cc1, the Potency was inconclusive: 13 µM [falling, single point].
For C/C(=N\NC(=O)COc1ccccc1-c1ccccc1)c1cccnc1, the Potency was inconclusive: 25.9 µM [falling, single point].
For Cc1nc2cc(-c3ccccc3)[nH]n2c(=O)c1C, the Potency was inconclusive: 6.51 µM [activator, partial curve, poor fit].
In the case of COC(=O)N1C(=O)[C@@](c2ccccc2)(C(C)C)N1C(=O)OC, the Potency is reported as inconclusive: 25.9 µM [falling, single point].
For O=C(Nc1nnc(Cc2ccc(F)cc2)s1)Nc1ccccc1F, the Potency was inconclusive: 20.6 µM [falling, single point].
With Cc1cc(Cl)ccc1OC(C)C(=O)Nc1ccc(S(=O)(=O)Nc2cnc3ccccc3n2)cc1 (configuration not stated) the Potency was active: 8.2 µM.
In the case of COc1ccc(CN(C(=O)c2ccco2)c2ccc(Br)cc2)cc1OC, the Potency is reported as inconclusive: 2.91 µM [falling, full curve, poor fit].
With O=C(NCc1ccncc1)c1cccc(S(=O)(=O)N2CCc3ccccc32)c1 the Potency was inconclusive: 13 µM [falling, partial curve].
In the case of Cn1c(SCc2c(F)cccc2Cl)nc2c(c1=O)SCC2, the Potency is reported as inconclusive: 23.1 µM [falling, single point].
With COc1ccc(-c2nc3ccccn3c2Nc2ccccc2C)cc1 the Potency was inconclusive: 25.9 µM [activator, single point].
For Cc1ccc(CNC(=O)Cn2c(=O)cc(C)c3c(C)nn(-c4cccc(F)c4)c32)cc1, the Potency was inconclusive: 20.6 µM [activator, partial curve, poor fit].
In the case of COC(=O)C(C)Oc1cc(OC(C)C(=O)OC)c2c(C)c(Cl)c(=O)oc2c1 (configuration not stated), the “activity change, negative = inhibition” value is reported as inactive: 9.22%.
With Cn1c(=O)c2[nH]c(C3CCCC3)nc2n(C)c1=O the Potency was active: 6.51 µM.
With CCN(CC(=O)Nc1sc2c(c1C#N)CCCC2)Cc1nc2ccccc2c(=O)[nH]1 the Potency was inconclusive: 4.61 µM [activator, full curve].
In the case of Cc1ccnc(NC(=O)CCC(=O)N(CC(=O)NCc2ccccc2)c2ccc3c(c2)OCO3)c1, the Potency is reported as inconclusive: 2.31 µM [activator, partial curve, poor fit].
With C#CCOCCOCCOCCNc1nc(N2CCN(C(=O)CCCCCCCCCCNC(=O)Cn3cc(CCCCCN)nn3)CC2)nc(N2CCN(C(=O)CCCCCCCCCCNC(=O)[C@@H](CCC(=O)O)n3cc(CCCCCN)nn3)CC2)n1 the “activity change, negative = inhibition” value was inactive: 3.66%.
For O=[N+]([O-])c1ccccc1Nc1c2ccccc2nc2ccccc12, the Potency was inconclusive: 3.66 µM [falling, partial curve, poor fit].
In the case of COC(=O)c1cc(CSc2nc3ccc(C)cc3[nH]2)oc1C, the Potency is reported as active: 20.6 µM.
In the case of Cc1ccc2c(c1)N(C)/C(=C/c1cccc[n+]1C)S2, the Potency is reported as active: 6.51 µM.
With COc1ccc(-c2cn3cccnc3n2)cc1NC(=O)Nc1cc(C)ccc1C the Potency was inconclusive: 29.1 µM [falling, single point].
With COc1ccc(C2=Nn3c(nnc3-c3cccc(OC)c3)SC2)cc1 the “activity change, negative = inhibition” value was inactive: -16.4%.
With O=[S+]1([O-])N=C(Oc2cccnc2)c2ccccc21 the “activity change, negative = inhibition” value was inactive: 11.4%.
With C=CCN(c1ccccc1)S(=O)(=O)c1cccc(C(=O)N2CCN(c3ncccn3)CC2)c1 the Potency was inconclusive: 16.4 µM [falling, single point].
In the case of COc1ccccc1NC(=O)N1CCc2[nH]c3ccc(F)cc3c2C1, the Potency is reported as inconclusive: 2.91 µM [falling, partial curve, poor fit].
For CC(=O)Nc1ccc(NC(=O)c2c(-c3ccccc3Cl)noc2C)cc1, the Potency was inconclusive: 18.4 µM [activator, single point].
In the case of Cc1ccc(S(=O)(=O)NCC(c2cccnc2)N2CCOCC2)cc1 (configuration not stated), the Potency is reported as inconclusive: 0.231 µM [falling, full curve, poor fit].
In the case of CCCCc1nnc(NC(=O)CSCc2cc(=O)n3cc(C)sc3n2)s1, the “activity change, negative = inhibition” value is reported as inactive: -17.4%.
For CCOC(=O)CSc1nc2cc(C)ccc2cc1C#N, the Potency was inconclusive: 29.1 µM [activator, single point].
In the case of CC1(C)OC(=O)C2(Cc3cc([N+](=O)[O-])ccc3N3CCCCC32)C(=O)O1 (configuration not stated), the Potency is reported as inconclusive: 0.0046 µM [activator, full curve, poor fit].
For Cc1ccc(C2CN=NC23CCc2ccccc2C3=O)cc1 (configuration not stated), the Potency was inconclusive: 25.9 µM [activator, single point].
For CCOc1ccc(C(=O)NCC(c2ccc(Cl)cc2)N2CCCCC2)cc1 (configuration not stated), the “activity change, negative = inhibition” value was inactive: 8.61%.
In the case of CCOC(=O)Cc1ncccc1C(=O)Nc1ccc(Oc2ccccc2)cc1, the activity change, negative = inhibition is reported as inconclusive: 20.4% [activator].
For COc1ccc(-c2onc(C)c2C)cc1S(=O)(=O)Nc1cccc(C#N)c1, the Potency was inconclusive: 29.1 µM [falling, single point].
With CCOC(=O)C1=C(COC(=O)c2ccc3ccccc3c2O)NC(=O)NC1C (configuration not stated) the “activity change, negative = inhibition” value was inactive: -9.71%.
With Cc1nc(C)c(C(=O)N2CCCC(C(=O)c3cc(F)ccc3F)C2)s1 (configuration not stated) the Potency was inconclusive: 16.4 µM [activator, partial curve, poor fit].
In the case of CC1CCN(CCCNS(=O)(=O)c2cc(Br)cc3c2N(C(=O)C2CC2)CC3)CC1, the Potency is reported as inconclusive: 20.6 µM [activator, partial curve, poor fit].
In the case of Cc1cc(C(=O)COC(=O)C2=COCCO2)c(C)n1-c1cccc(F)c1, the Potency is reported as inconclusive: 20.6 µM [activator, partial curve].
In the case of COc1ccc(CNc2nc3c(c(=O)n(Cc4ccc(Br)cc4)c(=O)n3C)n2C)cc1, the Potency is reported as active: 18.4 µM.
With CCOC(=O)N1CCc2c(sc3c2c(=O)n(-c2ccc(F)cc2)c(=O)n3CC(=O)c2ccc(Cl)cc2)C1 the Potency was inconclusive: 4.61 µM [activator, single point].
In the case of O=C(N/N=C/c1ccc(COc2ccc(Br)cc2)o1)c1ccc2c(c1)OCO2, the Potency is reported as inconclusive: 29.1 µM [falling, single point].
In the case of CCc1ccc(NS(=O)(=O)c2ccc(-c3cc(C)no3)cc2)cc1, the Potency is reported as inconclusive: 23.1 µM [falling, partial curve, poor fit].
For Nc1ccc(Oc2ccccc2-c2ccccc2)cc1, the Potency was active: 9.2 µM.
With O=S(=O)(Nc1nc2ccccc2nc1N1CCc2ccccc2C1)c1ccc(Cl)cc1 the Potency was inconclusive: 10.3 µM [falling, single point].
